The values below are quoted from earlier work in patent US12576020B2, “Increasing the stability of agents for the treatment of keratinous material” (Henkel AG & Co. KGaA, priority 2019, dated 2026).

For the data set the following is noted: 25° C.

For the molecule `CCN(Cc1cccc(S(=O)(=O)[O-])c1)c1ccc(C(=C2C=CC(=[N+](CC)Cc3cccc(S(=O)(=O)[O-])c3)C=C2)c2ccccc2S(=O)(=O)[O-])cc1.[Na+].[Na+]` [Acid Blue 9], the solubility in water entry is “more than 20 % by weight”.
